Results: PubChem BioAssay AID743255 (National Center for Advancing Translational Sciences (NCATS), 2014)
About 910 (0.23%) of roughly 390,000 compounds were called active. The inconclusive results got no clear call from the source; some entries with a clear call stand among them for comparison. The call rests on the fitted dose curve; in most records, active means well fitted inhibition curve with a large enough effect; inconclusive means small, poorly fitted or top-dose-only effect; inactive means no such curve, though single readings can be large or run the other way. Potencies of inconclusive entries are doubtful fits and often do not repeat.

Sequences of proteins named here, by UniProt entry; tags and fusion partners are left off. A change or cut given only in a name is not applied to a line headed by its entry.
UniProt O94782: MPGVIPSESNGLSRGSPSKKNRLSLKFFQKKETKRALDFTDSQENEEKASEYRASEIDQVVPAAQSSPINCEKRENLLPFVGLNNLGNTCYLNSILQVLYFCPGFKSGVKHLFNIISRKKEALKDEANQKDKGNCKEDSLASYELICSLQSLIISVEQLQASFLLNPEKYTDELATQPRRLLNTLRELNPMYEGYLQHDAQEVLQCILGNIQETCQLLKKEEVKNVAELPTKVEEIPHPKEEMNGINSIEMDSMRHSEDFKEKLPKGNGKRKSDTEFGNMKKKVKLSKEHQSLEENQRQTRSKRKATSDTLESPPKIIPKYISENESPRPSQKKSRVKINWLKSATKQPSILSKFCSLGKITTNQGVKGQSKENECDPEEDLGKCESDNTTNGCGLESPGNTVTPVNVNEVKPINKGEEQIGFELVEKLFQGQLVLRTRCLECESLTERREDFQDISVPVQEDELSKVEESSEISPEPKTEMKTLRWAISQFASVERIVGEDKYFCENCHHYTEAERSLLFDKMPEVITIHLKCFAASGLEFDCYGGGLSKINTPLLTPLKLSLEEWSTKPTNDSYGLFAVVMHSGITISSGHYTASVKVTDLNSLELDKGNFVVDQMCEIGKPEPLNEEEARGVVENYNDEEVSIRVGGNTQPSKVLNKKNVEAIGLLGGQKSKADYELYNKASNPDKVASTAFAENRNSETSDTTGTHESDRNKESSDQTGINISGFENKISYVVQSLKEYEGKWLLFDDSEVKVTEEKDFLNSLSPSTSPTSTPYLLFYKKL

Molecular target: Ubiquitin carboxyl-terminal hydrolase 1 (Homo sapiens) (UniProt O94782)
Test: Inhibitors of USP1/UAF1: Primary Screen; further: nearly all actives have a fitted effect of over 60% in size
Settings: recombinant USP1/UAF1, Ub-Rhodamine cleavage fluorescence; activity change, negative = inhibition: at 57.1 µM (top of the series)
Method in brief: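 Step one: compound is pinned into 1nM USP1/UAF1 in HEPES pH 7.8 buffer with TCEP. Step two: 15 min room-temperature incubation. Step three: Ub-Rho (150nM final) starts cleavage, tracked by fluorescence over six one-minute reads.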
On the % scale 0 is the no-effect control and ±100 the full control effect; potency means the concentration at half of the fitted maximal effect.

Activity change, negative = inhibition, inactive:
Cc1cc(NC(=O)C2CC(c3ccc(F)cc3)=NO2)n(-c2ccccc2)n1 (stereo unspecified) -19%
O=C(N/N=C/c1ccncc1)c1cc([N+](=O)[O-])cc([N+](=O)[O-])c1O -18.8%
N/C(=N\OC(=O)c1ccc(Cl)cc1)c1ccc(Cl)cc1 -16.2%
Cc1ccc(S(=O)(=O)c2cn(C)c3cc(N4CCCC4)c(F)cc3c2=O)c(C)c1 -6.2%
COc1ccc(CN2C(=O)N(c3ccc(F)cc3)C(=O)C2CC(=O)Nc2ccccc2)cc1 (stereo unspecified) -2.28%
CCOc1ccc(N2CC(c3nc4ccccc4n3CCC3CCCCC3)CC2=O)cc1 (stereo unspecified) -30.6%
CC(C)C(C(=O)Nc1nccs1)N1C(=O)c2ccccc2C1=O (stereo unspecified) -5.63%
Cc1cc(C(F)F)n2nc(C(=O)Nc3cccc(C(F)(F)F)c3)nc2n1 -18%
CN1C(=O)CSc2ccc(NC(=O)Nc3ccccn3)cc21 -3.62%
CN(O)C(=O)Nc1ccc([N+](=O)[O-])cc1 -7.63%
CCN1/C(=C/c2cc[n+](CCCS(=O)(=O)[O-])c3ccccc23)Sc2ccccc21 -8.64%
CCc1ccc(NC(=O)/C(C#N)=C/c2cc3ccc(C)cc3nc2N2CCOCC2)cc1 -21.6%
O=C(N/N=C/c1c[nH]c2ccccc12)c1cc(-c2cccc3ccccc23)n[nH]1 -13.1%

Structural class, the entries above with fluorine
Activity change, negative = inhibition, inactive:
Cc1cc(NC(=O)C2CC(c3ccc(F)cc3)=NO2)n(-c2ccccc2)n1 (stereo unspecified) -19%
Cc1ccc(S(=O)(=O)c2cn(C)c3cc(N4CCCC4)c(F)cc3c2=O)c(C)c1 -6.2%
COc1ccc(CN2C(=O)N(c3ccc(F)cc3)C(=O)C2CC(=O)Nc2ccccc2)cc1 (stereo unspecified) -2.28%
Cc1cc(C(F)F)n2nc(C(=O)Nc3cccc(C(F)(F)F)c3)nc2n1 -18%

A section from further up, as a working copy:
Activity change, negative = inhibition, inactive:
Cc1cc(NC(=O)C2CC(c3ccc(F)cc3)=NO2)n(-c2ccccc2)n1 (stereo unspecified) -19%
O=C(N/N=C/c1ccncc1)c1cc([N+](=O)[O-])cc([N+](=O)[O-])c1O -18.8%

Following part.

Potency, inconclusive:
Cc1ccc(CNc2ncnc3c2cnn3C2CCCCO2)cc1 (stereo unspecified) 0.562 µM [inhibitor, full curve, poor fit]
COc1ccc(NC(=O)c2c(C)oc3ccc(O)c(CN4CCCC(C)C4)c23)cc1Cl (stereo unspecified) 50.1 µM [inhibitor, partial curve, poor fit]
CCn1c(C)cc(/C=C2/SC(=S)N(CC(=O)O)C2=O)c1C 35.5 µM [inhibitor, partial curve]
CCOC(=O)c1c(N)sc(C(O)(C(F)(F)F)C(F)(F)F)c1-c1ccc(OC)cc1OC 14.1 µM [inhibitor, partial curve]
CCc1ccc(NC(=O)Cn2c(=O)n(Cc3ccccc3)c(=O)c3oc4ccccc4c32)cc1 31.6 µM [inhibitor, single point]
CCOn1c(=O)c(-c2cccc([N+](=O)[O-])c2)[n+]([O-])c2ccccc21 7.94 µM [inhibitor, partial curve, poor fit]
O=C(NCCc1c[nH]c2ccccc12)Nc1ccccc1C(F)(F)F 0.891 µM [inhibitor, full curve, poor fit]
O=C(N/N=C\c1ccccc1)c1cccc(C(=O)N/N=C\c2ccccc2)n1 31.6 µM [inhibitor, partial curve, poor fit]
Cc1ccc(CCNc2nc3ccccc3c3nc(-c4ccccc4)nn23)cc1 44.7 µM [inhibitor, partial curve, poor fit]
Cc1cc(NC(=O)CSc2sc3c(O)cc(=O)[nH]c3c2C#N)ccc1Br 4.47 µM [inhibitor, single point]
COCCCN1C(=O)/C(=C\c2cccs2)C(C(=O)OC)=C1C 3.55 µM [inhibitor, full curve, poor fit]
CCN(CC)S(=O)(=O)c1ccc2c(c1)N(CC(=O)NCC1CCCO1)C(=O)CO2 (stereo unspecified) 50.1 µM [inhibitor, partial curve, poor fit]
COc1ccc(C(=O)c2sc3nc(C)cc(-c4cccs4)c3c2N)cc1 31.6 µM [inhibitor, partial curve, poor fit]
CC(C)CCCN1C(N(C)C)=NC[C@@H]1Cc1ccccc1 7.94 µM [inhibitor, partial curve]
N#Cc1c(C(F)(F)F)cc(-c2cccs2)nc1SCC(=O)Nc1ccc(Cl)cc1 50.1 µM [inhibitor, partial curve, poor fit]
CC(C)CCNC(=O)C(c1ccncc1)N(C(=O)Cn1nnc(-c2ccc(F)cc2)n1)c1ccccc1F (stereo unspecified) 5.01 µM [inhibitor, partial curve]
CCOC(=O)C1=C(Cc2ccc(Cl)cc2)C(=O)c2ccccc2C1=O 31.6 µM [inhibitor, partial curve]
CSc1nnc(C)c(/C=C/Nc2ccc(Cl)cc2)n1 28.2 µM [inhibitor, partial curve]
COc1ccc(NS(=O)(=O)c2ccc(O)c(NC(=O)c3cc4c(C)nn(-c5ccc(F)cc5)c4s3)c2)cc1 35.5 µM [inhibitor, single point]
CC1CCC(NC(=O)C(NS(=O)(=O)c2cccc3nsnc23)C(C)C)CC1 (stereo unspecified) 56.2 µM [inhibitor, partial curve, poor fit]
Cc1oc(-c2ccccc2)nc1CS(=O)CC(=O)O (stereo unspecified) 44.7 µM [inhibitor, partial curve, poor fit]
Cc1cccc(OCCn2c(S(=O)(=O)O)nc3ccccc32)c1 0.251 µM [inhibitor, full curve, poor fit]
Cc1cc(=O)n(CC(C)O)c(O)c1C#N (stereo unspecified) 39.8 µM [inhibitor, partial curve]
CCc1ccc(-n2c(=O)c3cccnc3n2CC(=O)N(CC)c2cccc(C)c2)cc1 15.8 µM [inhibitor, partial curve, poor fit]
Cc1ccccc1C(=O)Nc1ccccc1C(=O)OCc1cc(=O)n2nc(C3CC3)sc2n1 5.01 µM [inhibitor, full curve]
Fc1ccc(-n2ncc3c(Nc4ccc(Oc5ccc(Cl)cc5)cc4)ncnc32)cc1 0.794 µM [inhibitor, full curve]
CCOc1ccc(NC(=O)Cn2cnc3nc4c(cc3c2=O)CCCC4)cc1 4.47 µM [inhibitor, full curve, poor fit]
CC(CCc1ccccc1)NC(=O)c1nnc(Cc2ccc(Cl)cc2)o1 (stereo unspecified) 31.6 µM [inhibitor, partial curve]
